According to the supplement of paper PMC10849652:
Some of the results follow.

By UniProt entry, the sequences of proteins in these tests, tags left out. Where a name states a change or a piece, a line headed by the entry shows the natural chain unless it says otherwise.
UniProt Q6PII3: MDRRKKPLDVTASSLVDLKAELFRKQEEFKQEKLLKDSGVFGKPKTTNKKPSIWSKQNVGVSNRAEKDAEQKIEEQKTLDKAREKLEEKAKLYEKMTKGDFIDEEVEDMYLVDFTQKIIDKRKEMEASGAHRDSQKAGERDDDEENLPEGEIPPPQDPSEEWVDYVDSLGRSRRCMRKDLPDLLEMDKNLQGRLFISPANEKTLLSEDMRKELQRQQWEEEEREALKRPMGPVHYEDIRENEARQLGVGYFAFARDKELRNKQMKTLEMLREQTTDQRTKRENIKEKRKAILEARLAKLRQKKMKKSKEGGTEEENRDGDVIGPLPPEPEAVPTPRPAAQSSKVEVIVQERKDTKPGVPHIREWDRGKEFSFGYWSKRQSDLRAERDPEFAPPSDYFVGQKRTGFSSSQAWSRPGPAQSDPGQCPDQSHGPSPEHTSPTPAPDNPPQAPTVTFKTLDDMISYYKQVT
UniProt Q16543: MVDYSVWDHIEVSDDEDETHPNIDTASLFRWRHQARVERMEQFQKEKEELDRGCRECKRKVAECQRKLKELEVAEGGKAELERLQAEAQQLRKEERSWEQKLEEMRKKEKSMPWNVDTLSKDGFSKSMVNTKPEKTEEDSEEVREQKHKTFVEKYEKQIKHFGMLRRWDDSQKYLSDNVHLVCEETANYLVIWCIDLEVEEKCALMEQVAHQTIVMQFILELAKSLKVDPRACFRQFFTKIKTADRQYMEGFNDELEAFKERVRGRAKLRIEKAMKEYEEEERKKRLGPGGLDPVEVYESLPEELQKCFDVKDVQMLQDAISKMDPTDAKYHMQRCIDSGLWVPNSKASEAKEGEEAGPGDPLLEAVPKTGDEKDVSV
UniProt Q86WR0: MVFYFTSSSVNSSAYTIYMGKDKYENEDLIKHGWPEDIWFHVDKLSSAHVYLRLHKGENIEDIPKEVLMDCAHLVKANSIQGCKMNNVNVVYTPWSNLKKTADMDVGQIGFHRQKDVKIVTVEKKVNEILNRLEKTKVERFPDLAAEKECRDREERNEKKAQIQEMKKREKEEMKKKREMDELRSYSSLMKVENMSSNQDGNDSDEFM
UniProt Q8IWP9: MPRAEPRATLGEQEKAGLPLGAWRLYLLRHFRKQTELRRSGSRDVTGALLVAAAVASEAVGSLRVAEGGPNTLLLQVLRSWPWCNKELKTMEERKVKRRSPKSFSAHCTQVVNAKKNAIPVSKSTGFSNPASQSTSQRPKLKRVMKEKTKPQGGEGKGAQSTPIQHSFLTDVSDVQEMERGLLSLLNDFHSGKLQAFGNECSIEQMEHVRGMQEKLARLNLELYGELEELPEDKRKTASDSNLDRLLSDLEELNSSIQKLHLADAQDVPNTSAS
UniProt Q9H6E4: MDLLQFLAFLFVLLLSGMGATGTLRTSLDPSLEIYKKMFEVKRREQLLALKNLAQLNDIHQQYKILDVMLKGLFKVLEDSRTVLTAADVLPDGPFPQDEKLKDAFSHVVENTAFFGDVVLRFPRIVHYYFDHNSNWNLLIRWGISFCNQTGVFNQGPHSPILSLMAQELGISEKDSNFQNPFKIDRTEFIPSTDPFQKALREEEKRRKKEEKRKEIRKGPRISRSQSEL
UniProt Q4VC31: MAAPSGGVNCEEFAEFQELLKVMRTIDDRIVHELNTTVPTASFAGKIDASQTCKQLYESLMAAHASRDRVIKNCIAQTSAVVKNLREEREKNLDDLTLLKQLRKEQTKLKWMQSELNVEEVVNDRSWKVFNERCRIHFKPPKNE
UniProt P78371: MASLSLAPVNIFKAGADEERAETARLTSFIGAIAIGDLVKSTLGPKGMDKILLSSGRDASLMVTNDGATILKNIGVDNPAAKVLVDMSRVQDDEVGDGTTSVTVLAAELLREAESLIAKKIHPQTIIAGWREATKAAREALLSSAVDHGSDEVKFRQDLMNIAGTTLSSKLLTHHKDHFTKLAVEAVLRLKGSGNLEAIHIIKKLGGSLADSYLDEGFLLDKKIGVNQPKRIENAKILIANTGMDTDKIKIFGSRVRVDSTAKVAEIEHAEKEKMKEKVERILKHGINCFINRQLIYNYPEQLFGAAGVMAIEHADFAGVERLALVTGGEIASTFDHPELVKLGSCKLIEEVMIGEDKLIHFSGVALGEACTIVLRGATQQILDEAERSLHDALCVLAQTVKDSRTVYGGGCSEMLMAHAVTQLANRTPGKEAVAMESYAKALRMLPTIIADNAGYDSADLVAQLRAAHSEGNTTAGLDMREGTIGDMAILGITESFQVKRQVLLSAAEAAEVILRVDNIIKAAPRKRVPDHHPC
UniProt P19256, whole entry, looked up: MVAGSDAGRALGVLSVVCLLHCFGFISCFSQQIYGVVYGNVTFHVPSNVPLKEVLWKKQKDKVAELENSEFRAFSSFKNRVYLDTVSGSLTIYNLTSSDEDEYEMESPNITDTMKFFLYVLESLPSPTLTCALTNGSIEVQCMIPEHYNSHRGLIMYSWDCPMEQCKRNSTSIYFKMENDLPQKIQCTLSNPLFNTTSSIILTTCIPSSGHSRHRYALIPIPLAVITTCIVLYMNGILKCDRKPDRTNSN
UniProt Q96ER9: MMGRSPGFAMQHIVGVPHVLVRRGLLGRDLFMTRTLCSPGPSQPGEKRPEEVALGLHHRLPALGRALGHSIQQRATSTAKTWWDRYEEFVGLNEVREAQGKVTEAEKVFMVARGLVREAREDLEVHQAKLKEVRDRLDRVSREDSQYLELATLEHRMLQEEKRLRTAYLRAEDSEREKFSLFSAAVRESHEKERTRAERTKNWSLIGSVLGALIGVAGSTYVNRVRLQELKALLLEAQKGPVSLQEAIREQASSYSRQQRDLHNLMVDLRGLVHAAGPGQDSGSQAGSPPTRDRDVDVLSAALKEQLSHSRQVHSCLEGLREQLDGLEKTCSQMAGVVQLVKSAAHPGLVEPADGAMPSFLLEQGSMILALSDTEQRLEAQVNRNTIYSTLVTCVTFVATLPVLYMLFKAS
UniProt Q8WUD4: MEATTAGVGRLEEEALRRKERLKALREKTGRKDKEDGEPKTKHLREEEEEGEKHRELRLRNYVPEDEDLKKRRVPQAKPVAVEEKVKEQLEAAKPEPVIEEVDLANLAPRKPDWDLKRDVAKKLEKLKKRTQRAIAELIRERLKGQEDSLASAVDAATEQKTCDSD
UniProt P45973, whole entry, looked up: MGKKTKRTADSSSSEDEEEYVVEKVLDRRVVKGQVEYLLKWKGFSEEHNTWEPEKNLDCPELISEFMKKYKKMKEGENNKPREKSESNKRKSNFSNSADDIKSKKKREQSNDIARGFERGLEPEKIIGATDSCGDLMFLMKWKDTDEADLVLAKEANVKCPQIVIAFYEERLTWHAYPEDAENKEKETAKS
UniProt Q8NHZ8, whole entry, looked up: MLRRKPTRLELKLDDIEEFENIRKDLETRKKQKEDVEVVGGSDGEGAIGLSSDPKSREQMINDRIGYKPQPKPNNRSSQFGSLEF
UniProt P83916, whole entry, looked up: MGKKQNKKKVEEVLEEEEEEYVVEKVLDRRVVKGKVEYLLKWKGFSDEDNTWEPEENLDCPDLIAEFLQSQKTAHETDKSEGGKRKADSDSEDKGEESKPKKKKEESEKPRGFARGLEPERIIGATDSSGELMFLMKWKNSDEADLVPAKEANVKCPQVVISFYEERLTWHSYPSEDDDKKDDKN
UniProt P86791: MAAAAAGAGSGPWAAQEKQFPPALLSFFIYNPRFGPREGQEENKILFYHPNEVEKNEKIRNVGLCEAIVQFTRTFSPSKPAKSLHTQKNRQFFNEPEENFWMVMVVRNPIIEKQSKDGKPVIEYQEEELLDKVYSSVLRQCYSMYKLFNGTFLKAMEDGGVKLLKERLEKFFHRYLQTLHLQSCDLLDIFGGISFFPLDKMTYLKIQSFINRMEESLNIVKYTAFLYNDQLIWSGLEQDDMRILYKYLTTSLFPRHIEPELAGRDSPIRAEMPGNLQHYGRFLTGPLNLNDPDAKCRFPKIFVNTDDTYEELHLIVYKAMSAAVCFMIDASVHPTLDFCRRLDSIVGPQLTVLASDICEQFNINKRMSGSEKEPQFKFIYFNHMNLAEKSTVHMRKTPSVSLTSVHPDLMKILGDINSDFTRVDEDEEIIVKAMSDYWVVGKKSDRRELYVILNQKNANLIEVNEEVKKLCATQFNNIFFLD
UniProt Q7L3B6: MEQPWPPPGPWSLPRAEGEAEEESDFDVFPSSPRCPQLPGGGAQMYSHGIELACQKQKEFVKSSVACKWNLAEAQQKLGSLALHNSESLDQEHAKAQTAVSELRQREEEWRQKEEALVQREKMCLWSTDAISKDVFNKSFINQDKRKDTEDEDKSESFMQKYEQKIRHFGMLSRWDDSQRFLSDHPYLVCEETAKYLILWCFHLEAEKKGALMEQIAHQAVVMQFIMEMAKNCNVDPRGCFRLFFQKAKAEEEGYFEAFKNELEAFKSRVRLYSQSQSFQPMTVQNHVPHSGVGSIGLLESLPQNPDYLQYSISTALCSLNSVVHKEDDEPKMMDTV
UniProt O15234, whole entry, looked up: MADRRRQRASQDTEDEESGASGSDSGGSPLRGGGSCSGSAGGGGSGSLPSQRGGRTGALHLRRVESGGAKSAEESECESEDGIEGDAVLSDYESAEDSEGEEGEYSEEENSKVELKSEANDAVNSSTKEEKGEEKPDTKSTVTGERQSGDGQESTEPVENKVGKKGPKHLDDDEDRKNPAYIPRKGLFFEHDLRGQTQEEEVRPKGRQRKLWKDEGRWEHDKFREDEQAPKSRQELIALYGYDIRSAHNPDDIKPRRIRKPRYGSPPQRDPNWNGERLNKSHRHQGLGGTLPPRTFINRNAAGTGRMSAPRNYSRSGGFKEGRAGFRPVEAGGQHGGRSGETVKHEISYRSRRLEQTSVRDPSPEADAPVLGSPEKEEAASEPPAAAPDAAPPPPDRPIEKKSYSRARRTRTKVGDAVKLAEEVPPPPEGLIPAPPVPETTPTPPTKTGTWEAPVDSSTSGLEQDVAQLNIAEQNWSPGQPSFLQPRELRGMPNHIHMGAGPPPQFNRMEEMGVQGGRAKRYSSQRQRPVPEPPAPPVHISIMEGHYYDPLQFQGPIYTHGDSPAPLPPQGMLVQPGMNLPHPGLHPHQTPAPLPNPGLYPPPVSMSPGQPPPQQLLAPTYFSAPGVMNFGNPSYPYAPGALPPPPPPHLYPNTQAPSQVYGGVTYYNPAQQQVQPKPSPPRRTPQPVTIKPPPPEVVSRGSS
UniProt Q96S94: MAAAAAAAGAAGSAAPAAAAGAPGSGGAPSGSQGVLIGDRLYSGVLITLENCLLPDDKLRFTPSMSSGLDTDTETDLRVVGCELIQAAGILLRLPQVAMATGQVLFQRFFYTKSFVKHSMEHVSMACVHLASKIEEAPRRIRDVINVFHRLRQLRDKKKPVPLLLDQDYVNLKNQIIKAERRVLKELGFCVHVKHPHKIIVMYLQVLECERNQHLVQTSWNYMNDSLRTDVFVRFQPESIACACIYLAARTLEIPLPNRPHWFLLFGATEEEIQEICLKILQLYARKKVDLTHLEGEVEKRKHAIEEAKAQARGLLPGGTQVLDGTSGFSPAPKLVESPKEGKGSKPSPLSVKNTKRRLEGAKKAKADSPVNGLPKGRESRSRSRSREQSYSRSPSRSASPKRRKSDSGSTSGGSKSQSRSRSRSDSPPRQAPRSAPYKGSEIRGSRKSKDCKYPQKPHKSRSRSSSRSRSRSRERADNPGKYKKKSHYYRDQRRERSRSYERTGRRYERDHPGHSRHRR
UniProt Q8N163, whole entry, looked up: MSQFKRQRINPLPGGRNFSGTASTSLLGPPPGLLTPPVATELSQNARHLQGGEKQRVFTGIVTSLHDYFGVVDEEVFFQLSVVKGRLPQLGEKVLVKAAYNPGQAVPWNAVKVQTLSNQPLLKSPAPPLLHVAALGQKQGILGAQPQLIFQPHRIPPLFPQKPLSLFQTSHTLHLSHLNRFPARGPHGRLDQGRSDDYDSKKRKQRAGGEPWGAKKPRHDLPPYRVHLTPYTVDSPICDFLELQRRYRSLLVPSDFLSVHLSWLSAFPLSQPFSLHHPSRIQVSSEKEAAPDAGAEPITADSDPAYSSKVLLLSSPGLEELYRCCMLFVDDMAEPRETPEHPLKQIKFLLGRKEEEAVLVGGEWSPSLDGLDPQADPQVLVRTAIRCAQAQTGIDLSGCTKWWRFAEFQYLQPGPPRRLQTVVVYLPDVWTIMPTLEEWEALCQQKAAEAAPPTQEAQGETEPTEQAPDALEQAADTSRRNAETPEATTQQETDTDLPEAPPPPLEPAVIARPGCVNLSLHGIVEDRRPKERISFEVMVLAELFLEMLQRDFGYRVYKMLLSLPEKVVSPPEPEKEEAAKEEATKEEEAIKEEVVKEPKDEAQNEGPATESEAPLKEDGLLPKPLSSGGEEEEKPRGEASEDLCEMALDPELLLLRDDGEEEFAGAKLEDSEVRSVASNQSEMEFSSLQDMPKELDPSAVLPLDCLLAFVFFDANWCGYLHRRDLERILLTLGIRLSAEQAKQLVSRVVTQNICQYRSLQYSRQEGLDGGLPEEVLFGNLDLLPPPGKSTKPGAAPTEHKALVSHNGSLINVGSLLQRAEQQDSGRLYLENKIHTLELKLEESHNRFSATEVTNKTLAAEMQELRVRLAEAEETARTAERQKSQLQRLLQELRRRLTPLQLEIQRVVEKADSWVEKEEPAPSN

Assays:
Assay in all cases: log2 fold change, soluble protein after heating vs DMSO (PISA); higher = thermal stabilisation; K562 cells, 10 uM, 30 min; active = over 0.2 and 3.5 SD of the protein, either way, in both replicates (recomputed)
[1] = compound: CS(=O)(=O)c1ccc(-c2cnc(N)c(C(=O)Nc3ccccc3)n2)cc1
Procedure, shortened: (§1)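 Soluble protein was quantified by TMTpro 16plex LC-MS/MS after channel sums were equalised. It was obtained as the supernatant after 21,000xg for 90 min from pooled aliquots of K562 cells (2×10^6 cells/mL, 10 μM compound, 30 min) heated for 3 min across 48°C-58°C and extracted in PBS with 0.5% NP-40 at 4°C. Thermal stability values are relative to control samples and come from duplicates. They are given as log2 fold changes.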

crizotinib = compound: C[C@@H](Oc1cc(-c2cnn(C3CCNCC3)c2)cnc1N)c1c(Cl)ccc(F)c1Cl [crizotinib]
Procedure, shortened: as §1

[2] = compound: C[C@@H]1COCCN1C2=NC(=NC(=C2)C3(CC3)S(=O)(=O)C)C4=C5C=CNC5=CC=C4
Procedure, shortened: as §1

[3] = compound: C[C@H](C1=CC=C(C=C1)C(=O)NC2=C3C=CNC3=NC=C2)N
Procedure, shortened: as §1

duvelisib = compound: C[C@H](Nc1ncnc2nc[nH]c12)c1cc2cccc(Cl)c2c(=O)n1-c1ccccc1 [duvelisib]
Procedure, shortened: as §1

gandotinib = compound: Cc1cc(Nc2cc(CN3CCOCC3)c3nc(C)c(Cc4ccc(Cl)cc4F)n3n2)n[nH]1 [gandotinib]
Procedure, shortened: as §1

tozasertib = compound: Cc1cc(Nc2cc(N3CCN(C)CC3)nc(Sc3ccc(NC(=O)C4CC4)cc3)n2)n[nH]1 [tozasertib]
Procedure, shortened: as §1

[4] = compound: Cc1cc(SCc2sc(-c3ccc(C(F)(F)F)cc3)nc2C)ccc1OCC(=O)O
Procedure, shortened: as §1

doramapimod = compound: Cc1ccc(-n2nc(C(C)(C)C)cc2NC(=O)Nc2ccc(OCCN3CCOCC3)c3ccccc23)cc1 [doramapimod]
Procedure, shortened: as §1

ispinesib = compound: Cc1ccc(C(=O)N(CCCN)[C@@H](c2nc3cc(Cl)ccc3c(=O)n2Cc2ccccc2)C(C)C)cc1 [ispinesib]
Procedure, shortened: as §1

Target | log2 fold change [1] | log2 fold change (crizotinib) | log2 fold change [2] | log2 fold change [3] | log2 fold change (duvelisib) | log2 fold change (gandotinib) | log2 fold change (tozasertib) | log2 fold change [4] | log2 fold change (doramapimod) | log2 fold change (ispinesib)
CCDC174 (UniProt Q6PII3) | inactive: 0.003 | inactive: 0.058 | inactive: 0.014 | inactive: -0.071 | inactive: 0.025 | inactive: 0.022 | inactive: 0.012 | inactive: -0.037 | inactive: 0 | inactive: 0.047
CCT3 (UniProt P49368) | inactive: 0.015 | inactive: 0.023 | inactive: 0.02 | inactive: -0.001 | inactive: 0.001 | inactive: 0.019 | inactive: -0.004 | inactive: -0.015 | inactive: -0.041 | inactive: 0.026
CDC37 (UniProt Q16543) | inactive: 0.001 | inactive: 0.008 | inactive: 0.053 | inactive: -0.099 | inactive: 0.029 | inactive: -0.161 | inactive: 0.044 | inactive: -0.002 | inactive: -0.001 | inactive: 0.058
CCDC115 (UniProt Q96NT0) | inactive: -0.001 | inactive: 0.083 | inactive: 0.008 | inactive: -0.118 | inactive: 0.061 | inactive: -0.023 | inactive: 0.032 | inactive: -0.046 | inactive: -0.012 | inactive: 0.053
CCDC25 (UniProt Q86WR0) | inactive: 0.073 | inactive: -0.141 | inactive: 0.105 | inactive: -0.01 | inactive: 0.079 | inactive: -0.018 | inactive: -0.07 | inactive: 0.133 | inactive: -0.055 | inactive: -0.031
CCDC28A (UniProt Q8IWP9) | inactive: 0.005 | inactive: -0.06 | inactive: -0.083 | inactive: -0.002 | inactive: 0.09 |  | inactive: -0.004 | inactive: 0.09 | inactive: -0.04 | inactive: 0.029
CCDC134 (UniProt Q9H6E4) | inactive: 0.035 | inactive: -0.003 | inactive: -0.117 | inactive: 0.091 | inactive: -0.084 | inactive: 0.008 | inactive: 0.036 | inactive: -0.014 | inactive: 0.044 | inactive: -0.022
CCDC58 (UniProt Q4VC31) | inactive: -0.03 | inactive: 0.037 | inactive: -0.009 | inactive: -0.06 | inactive: 0 | inactive: 0.019 | inactive: -0.028 | inactive: -0.001 | inactive: -0.031 | inactive: 0.01
CCT2 (UniProt P78371) | inactive: -0.025 | inactive: -0.008 | inactive: 0.011 | inactive: -0.038 | inactive: 0.009 | inactive: -0.029 | inactive: 0.007 | inactive: 0.016 | inactive: -0.006 | inactive: 0.005
CCDC85C (UniProt A6NKD9) | inactive: 0.362 | inactive: 0.039 | inactive: 0.05 | inactive: -0.193 | inactive: 0.061 | inactive: -0.021 | inactive: -0.021 | inactive: -0.09 | inactive: 0.032 | inactive: -0.124
CCT8 (UniProt P50990) | inactive: -0.004 | inactive: -0.012 | inactive: 0.004 | inactive: -0.016 | inactive: 0.011 | inactive: -0.01 | inactive: -0.013 | inactive: 0.008 | inactive: 0.016 | inactive: -0.001
CAVIN2 (UniProt O95810) | inactive: -0.071 | inactive: -0.102 | inactive: -0.179 | inactive: 0.063 | inactive: -0.112 | inactive: 0.06 | inactive: 0.059 | inactive: 0.045 | inactive: 0.095 | inactive: -0.18
CD58 (UniProt P19256) | inactive: 0.009 | inactive: 0.134 | inactive: -0.01 | inactive: -0.072 | inactive: 0.048 | inactive: -0.122 | inactive: -0.033 | inactive: -0.085 | inactive: 0.055 | inactive: 0.062
CD46 isoform 2 (UniProt P15529) | inactive: 0.038 | inactive: 0.108 | inactive: 0.019 | inactive: -0.091 | inactive: 0.095 | inactive: -0.04 | inactive: -0.024 | inactive: 0.005 | inactive: -0.036 | inactive: 0.126
CCDC51 (UniProt Q96ER9) | inactive: -0.081 | inactive: -0.036 | inactive: -0.018 | inactive: -0.084 | inactive: 0.086 | inactive: 0 | inactive: 0.003 | inactive: 0.006 | inactive: -0.02 | inactive: 0.009
CCDC6 (UniProt Q16204) | inactive: -0.003 | inactive: 0.058 | inactive: 0.056 | inactive: -0.04 | inactive: 0.045 | inactive: -0.014 | inactive: -0.003 | inactive: -0.043 | inactive: -0.007 | inactive: -0.032
CCDC91 (UniProt Q7Z6B0) | inactive: 0.056 | inactive: -0.022 | inactive: 0.037 | inactive: 0.065 | inactive: 0.01 | inactive: -0.04 | inactive: 0.01 | inactive: -0.003 | inactive: 0.05 | inactive: -0.018
CCSMST1 (UniProt Q4G0I0) | inactive: -0.007 | inactive: 0.127 | inactive: 0.221 | inactive: 0.002 | inactive: 0.078 |  | inactive: 0.017 | inactive: -0.114 | inactive: -0.002 | inactive: -0.027
CCDC12 (UniProt Q8WUD4) | inactive: 0.028 | inactive: 0.095 | inactive: -0.159 | inactive: -0.072 | inactive: -0.047 | inactive: 0.11 | inactive: -0.061 | inactive: -0.065 | inactive: -0.02 | inactive: 0.006
CBX5 (UniProt P45973) | inactive: 0.012 | inactive: 0.128 | inactive: -0.037 | inactive: -0.058 |  | inactive: -0.015 |  | inactive: 0.059 | inactive: -0.045 | inactive: 0.092
CASP3 (UniProt P42574) | inactive: 0.017 | inactive: 0.036 | inactive: -0.059 | inactive: -0.057 |  | inactive: -0.019 |  | inactive: -0.05 | inactive: -0.022 | inactive: -0.004
CDC26 (UniProt Q8NHZ8) | inactive: 0.036 | inactive: 0.153 | inactive: 0.016 | inactive: 0.212 |  | inactive: -0.033 |  | inactive: -0.021 | inactive: -0.017 | inactive: 0.406
CBX1 (UniProt P83916) | inactive: -0.03 | inactive: 0.001 | inactive: 0.043 | inactive: -0.08 |  | inactive: 0.004 |  | inactive: -0.056 | inactive: 0.105 | inactive: 0.04
CCZ1 (UniProt P86791) | inactive: 0.022 | active: -0.278 | inactive: 0.009 | inactive: 0.005 |  | inactive: -0.081 |  | inactive: 0.006 | inactive: -0.036 | inactive: -0.162
CDC37L1 (UniProt Q7L3B6) | inactive: 0.007 | inactive: 0.036 | inactive: 0.148 | inactive: -0.013 |  | inactive: -0.091 |  | inactive: 0.117 | inactive: -0.036 | inactive: 0.005
CASC3 (UniProt O15234) | inactive: -0.228 | active: 0.537 | active: -0.412 | inactive: 0.243 |  | active: 0.484 |  | inactive: -0.067 | inactive: -0.025 | inactive: -0.094
CD81 (UniProt P60033) | inactive: -0.03 | inactive: 0.162 | inactive: 0.107 | inactive: -0.232 |  | inactive: 0.019 |  | inactive: -0.084 | inactive: -0.025 | inactive: 0.207
CCM2 isoform 2 (UniProt Q9BSQ5) | inactive: 0.088 | inactive: -0.022 | inactive: -0.016 | inactive: 0.003 |  | inactive: 0.026 |  | inactive: -0.067 | inactive: 0.013 | inactive: -0.043
CCNL2 (UniProt Q96S94) | inactive: 0.049 |  | inactive: 0.273 |  |  |  |  |  |  | 
CCAR2 isoform 2 (UniProt Q8N163) | inactive: -0.037 | inactive: 0.024 | inactive: 0.046 | inactive: 0.011 |  | inactive: -0.093 |  | inactive: 0.169 | inactive: -0.009 | inactive: -0.063

Reprinted from the listing for reference:
Target | log2 fold change [1] | log2 fold change (crizotinib) | log2 fold change [2] | log2 fold change [3] | log2 fold change (duvelisib) | log2 fold change (gandotinib) | log2 fold change (tozasertib) | log2 fold change [4] | log2 fold change (doramapimod) | log2 fold change (ispinesib)
CASP3 (UniProt P42574) | inactive: 0.017 | inactive: 0.036 | inactive: -0.059 | inactive: -0.057 |  | inactive: -0.019 |  | inactive: -0.05 | inactive: -0.022 | inactive: -0.004
CDC26 (UniProt Q8NHZ8) | inactive: 0.036 | inactive: 0.153 | inactive: 0.016 | inactive: 0.212 |  | inactive: -0.033 |  | inactive: -0.021 | inactive: -0.017 | inactive: 0.406
CBX1 (UniProt P83916) | inactive: -0.03 | inactive: 0.001 | inactive: 0.043 | inactive: -0.08 |  | inactive: 0.004 |  | inactive: -0.056 | inactive: 0.105 | inactive: 0.04
CCZ1 (UniProt P86791) | inactive: 0.022 | active: -0.278 | inactive: 0.009 | inactive: 0.005 |  | inactive: -0.081 |  | inactive: 0.006 | inactive: -0.036 | inactive: -0.162
CDC37L1 (UniProt Q7L3B6) | inactive: 0.007 | inactive: 0.036 | inactive: 0.148 | inactive: -0.013 |  | inactive: -0.091 |  | inactive: 0.117 | inactive: -0.036 | inactive: 0.005
CASC3 (UniProt O15234) | inactive: -0.228 | active: 0.537 | active: -0.412 | inactive: 0.243 |  | active: 0.484 |  | inactive: -0.067 | inactive: -0.025 | inactive: -0.094
